For two compounds, survivor count results are on record in PubChem BioAssay AID256 (DTP/NCI, 2004).

This assay deals with CD2F1 mice, L1210 leukemia ip, survival T/C. The assay is described as follows: NCI In Vivo Anticancer Drug Screen. Data for tumor model L1210 Leukemia (intraperitoneal) in CD2F1 (CDF1) mice. The conditions noted are these: T/C endpoint: mean survival time, vehicle: saline with Tween-80, higher T/C = longer survival. In short, it runs like this: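 Read-out first: treated-group measurement over vehicle-control measurement, expressed as a ratio. Animals bore a transplanted tumor line and were dosed with compound or vehicle.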

The list shows only some results of the screen, not a fair sample: it gathers tests that were run many times, whatever their T/C, doses with no T/C, and many T/C values between a quarter and a half above the control. Other doses and runs of a compound stand elsewhere. T/C is the treated group as % of the vehicle group. Some doses have a count of surviving animals in place of a T/C: the source files T/C as zero there, which appears to mark a toxic dose or a test without result, not a measured value. Counts of survivors are from the toxicity check (mostly the fifth day) where no day follows; animals may have died later. Schedule codes are those of the source, read here as Q, the interval in days (D) or hours (H), X, the number of doses.

Take `C=CC(=O)c1ccccc1`: the survivor count (dose: 200.0 mg/kg/injection, schedule: Q04DX002 (ip)) is recorded as 0 of 3 and the survivor count (dose: 400.0 mg/kg/injection, schedule: Q04DX002 (ip)) is 0 of 3.
Take `CC(C)(CO)CN1CCCCC1`: under “dose: 400.0 mg/kg/injection, schedule: Q04DX003 (ip)”, the survivor count is 1 of 6.
